Assay results from article PMC12046042.
No constants are given. Whether binding was seen depends on the method and setting. Some results given as binding are weak or reduced against the parent protein; the word gives no strength. Sequences can lack the tags named with a protein.

Target: T1, CD200R (human (endogenous in HEL92.1.7)) (UniProt Q8TD46)
T1 sequence: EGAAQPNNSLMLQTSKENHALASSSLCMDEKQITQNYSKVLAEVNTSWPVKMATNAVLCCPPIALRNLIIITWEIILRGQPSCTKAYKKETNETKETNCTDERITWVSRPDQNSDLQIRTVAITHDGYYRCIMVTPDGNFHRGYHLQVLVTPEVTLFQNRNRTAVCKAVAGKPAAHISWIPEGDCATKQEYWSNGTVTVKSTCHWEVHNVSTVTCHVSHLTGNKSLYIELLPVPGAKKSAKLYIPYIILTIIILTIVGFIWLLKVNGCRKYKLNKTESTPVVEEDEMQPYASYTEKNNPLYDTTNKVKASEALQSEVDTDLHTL
Experiment: flow cytometry on cells; HEL92.1.7 cells naturally expressing CD200R, preincubated 2 h at room temperature with 66 nM ucenprubart, hCD200Fc or isotype control, Fc blocked, then a titration of the hCD200Fc ligand; only the binder purified

B1: hCD200-Fc (Fc fusion, UniProt P41217 31-232)
chain: QVQVVTQDEREQLYTPASLKCSLQNAQEALIVTWQKKKAVSPENMVTFSENHGVVIQPAYKDKINITQLGLQNSTITFWNITLEDEGCYMCLFNTFGFGKISGTACLTVYVQPIVSLHYKFSEDHLNITCSATARPAPMVFWKVPRSGIENSTVTLSHPNGTTSVTSILHIKDPKNQVGKEVICQVLHLGTVTDFKQTVNKG
- binding: binds
